Reference: publication PMC5386304
Results are given in words; binding and its absence hold for the method and conditions named. In cells and extracts the contact can be indirect. Binding can be weak; no strength is given. Tags and fused reporters may be left off the sequences shown.

Protein sequences, listed by entry. Tags and fused reporters are not part of them. Lines headed by an entry give the natural chain unless they say otherwise; changes in a name come on top.
UniProt A0A2R8VJU7: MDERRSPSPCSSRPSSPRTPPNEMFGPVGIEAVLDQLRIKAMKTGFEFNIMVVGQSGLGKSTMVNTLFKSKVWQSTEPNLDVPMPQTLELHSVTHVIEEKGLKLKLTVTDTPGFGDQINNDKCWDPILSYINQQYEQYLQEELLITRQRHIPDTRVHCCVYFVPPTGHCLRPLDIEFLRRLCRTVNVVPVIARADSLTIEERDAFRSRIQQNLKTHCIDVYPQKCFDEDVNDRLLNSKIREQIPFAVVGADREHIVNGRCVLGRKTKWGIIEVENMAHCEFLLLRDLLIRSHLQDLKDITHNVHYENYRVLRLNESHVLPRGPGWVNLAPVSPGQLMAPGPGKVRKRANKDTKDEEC

Key:
[1] = target: T1, His-tagged SEPT7 recombinant protein (UniProt Q16181); assay: pull-down; 5 μg His-SEPT7 on 30 μl Ni-NTA beads, 5 mM imidazole, incubated with testicular lysate of WT or SEPT12^S196E/S196E mice overnight at 4°C; washed three times; blots for SEPT12, SEPT2, SEPT6 and His; only the target purified
T1 sequence: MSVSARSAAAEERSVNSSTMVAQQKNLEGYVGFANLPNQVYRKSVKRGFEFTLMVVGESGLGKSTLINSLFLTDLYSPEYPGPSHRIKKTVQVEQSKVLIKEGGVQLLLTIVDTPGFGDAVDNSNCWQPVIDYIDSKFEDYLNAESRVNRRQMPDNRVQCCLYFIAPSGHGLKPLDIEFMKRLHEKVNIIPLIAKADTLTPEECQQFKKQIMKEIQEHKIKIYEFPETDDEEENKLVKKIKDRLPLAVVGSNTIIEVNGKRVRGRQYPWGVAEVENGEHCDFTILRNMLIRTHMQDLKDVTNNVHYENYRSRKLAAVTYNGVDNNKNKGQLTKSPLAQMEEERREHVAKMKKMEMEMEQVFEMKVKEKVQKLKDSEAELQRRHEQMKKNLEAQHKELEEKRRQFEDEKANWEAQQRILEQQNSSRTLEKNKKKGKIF

GFP-SEPT12WT (human) = target: T2, GFP-SEPT12WT (human) (UniProt Q8IYM1); assay: co-IP; NT2/D1 cells co-transfected with HA-SEPT4, Myc-SEPT6, FLAG-SEPT7 and a GFP-SEPT12 plasmid; lysates immunoprecipitated with anti-GFP; blots with anti-HA, anti-Myc, anti-FLAG, anti-GFP
T2 sequence: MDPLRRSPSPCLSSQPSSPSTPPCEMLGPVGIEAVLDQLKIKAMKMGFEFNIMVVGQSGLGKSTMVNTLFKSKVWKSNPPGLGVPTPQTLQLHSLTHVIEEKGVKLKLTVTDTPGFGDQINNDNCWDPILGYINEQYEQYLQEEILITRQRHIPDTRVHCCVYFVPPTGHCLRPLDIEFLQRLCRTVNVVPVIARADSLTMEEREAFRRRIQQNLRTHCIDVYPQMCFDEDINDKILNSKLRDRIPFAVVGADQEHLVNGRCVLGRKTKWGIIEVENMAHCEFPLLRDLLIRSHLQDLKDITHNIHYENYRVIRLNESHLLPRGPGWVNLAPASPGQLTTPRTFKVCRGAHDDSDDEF

Substance | binding [1] | binding (GFP-SEPT12WT (human))
SEPT12 (endogenous, wild-type mouse testis) (from UniProt A0A2R8VJU7) | binds | –
SEPT12 S196E (phosphomimetic SEPT12 of knock-in mouse testis) (from UniProt A0A2R8VJU7-2) | no binding | –
HA-SEPT4 (from UniProt O43236-1) | – | binds
